Experimental data reported in the supplement of paper PMC6078165.
The reference is the same well before dosing, and untreated signal decays as well.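 Labels refer to human fibroblasts, largely primary: uterine (C12385, HUF), lung (H6013), bone (Hs27A), adrenal (HADF), skin (WS1), plus mammary HMF and breast cancer-associated Hs343T. Cancer lines are basal-like or mesenchymal-like triple-negative breast cancer. The paper counts as hits responses shifting over 3x the replicate standard deviation. The tissue of the other fibroblasts is not given here.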

Tested on: MDAMB231
Assay: relative JC-1 red fluorescence (viability) vs pre-drug, coculture with fibroblast (fraction); higher = more viable cancer cells
Description: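 JC-1 labelled TNBC cells cocultured 1:1 (1,500 cells each) with CellTrace Violet stained primary or stromal fibroblasts in 384-well plates in FluoroBrite medium, treated with one of 42 anticancer drugs at 0.1, 1, 10 or 100 uM. JC-1 red fluorescence (mitochondrial integrity in cancer cells only) was read by plate reader every 8 h for 72 h. Values are normalised to each well's pre-drug value. The stock of one drug was tenfold lower, so its dose labels may be too high.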

CN(C)CCOc1ccc(/C(=C(/CCCl)c2ccccc2)c2ccccc2)cc1 [Toremifene]
relative JC-1 red fluorescence
Conditions	8 h	16 h	24 h	32 h	40 h	48 h	56 h	64 h	72 h
10 µM, coculture fibroblast: C12385	0.751	0.8086	0.639	0.781	0.768	0.755	0.734	0.722	0.714
10 µM, coculture fibroblast: H6013	0.9309	0.954	0.953	0.949	0.927	0.878	0.901	0.896	0.884
10 µM, coculture fibroblast: H6019	0.821	0.89	0.816	0.815	0.899	0.887	0.766	0.863	0.754
10 µM, coculture fibroblast: H6076	0.798	0.825	0.963	0.98949	0.9569	0.9287	0.893	0.864	0.8427
10 µM, coculture fibroblast: H6231	0.94	0.918	0.829	0.867	0.877	0.821	0.858	0.85	0.843
10 µM, coculture fibroblast: HADF	0.931	0.945	0.95	0.978	0.9771	0.9049	0.9618	0.9735	0.955
10 µM, coculture fibroblast: HCFa	0.955	0.9722	0.98	0.886	0.97	0.8953	0.9116	0.8763	0.855
10 µM, coculture fibroblast: HCPF	0.955	0.935	0.924	0.924	0.911	0.889	0.891	0.864	0.877
10 µM, coculture fibroblast: HHSteC	0.909	0.87	0.836	0.928	0.897	0.845	0.834	0.876	0.945
10 µM, coculture fibroblast: HMF	0.879	0.936	0.97	0.949	0.924	0.898	0.871	0.85	0.848
10 µM, coculture fibroblast: HPFa	0.93	0.954	0.952	0.9365	0.957	0.915	0.922	0.922	0.907
10 µM, coculture fibroblast: HUF	0.856	0.793	0.794	0.737	0.688	0.659	0.624	0.627	0.599
10 µM, coculture fibroblast: Hs5	0.9448	0.931	0.906	0.904	0.877	0.849	0.83	0.812	0.811
10 µM, coculture fibroblast: Hs27A	0.935	0.915	0.919	0.948	0.918	0.797	0.881	0.886	0.863
10 µM, coculture fibroblast: Hs343T	0.852	0.871	0.868	0.922	0.891	0.879	0.879	0.8813	0.859
10 µM, coculture fibroblast: WS1	0.7832	0.8494	0.664	0.843	0.879	0.891	0.891	0.885	0.87
100 µM, coculture fibroblast: C12385	0.498	0.311	0.324	0.213	0.147	0.112	0.0806	0.0648	0.0391
100 µM, coculture fibroblast: H6013	0.532	0.287	0.263	0.236	0.201	0.188	0.152	0.134	0.0922
100 µM, coculture fibroblast: H6019	0.509	0.285	0.307	0.23	0.195	0.17	0.14	0.13	0.0982
100 µM, coculture fibroblast: H6076	0.534	0.357	0.349	0.323	0.28	0.24	0.206	0.181	0.148
100 µM, coculture fibroblast: H6231	0.54758	0.389	0.321	0.296	0.262	0.233	0.195	0.181	0.152
100 µM, coculture fibroblast: HADF	0.52	0.287	0.252	0.22	0.19	0.174	0.136	0.121	0.0773
100 µM, coculture fibroblast: HCFa	0.624	0.367	0.354	0.323	0.298	0.28	0.245	0.225	0.183
100 µM, coculture fibroblast: HCPF	0.48	0.352	0.31	0.295	0.25	0.216	0.177	0.148	0.123
100 µM, coculture fibroblast: HHSteC	0.52	0.332	0.318	0.273	0.24	0.225	0.181	0.163	0.118
100 µM, coculture fibroblast: HMF	0.518	0.316	0.273	0.247	0.211	0.176	0.138	0.118	0.0912
100 µM, coculture fibroblast: HPFa	0.667	0.424	0.402	0.362	0.341	0.323	0.272	0.249	0.208
100 µM, coculture fibroblast: HUF	0.636	0.408	0.434	0.308	0.255	0.232	0.184	0.169	0.136
100 µM, coculture fibroblast: Hs5	0.414	0.3128	0.311	0.272	0.24	0.189	0.156	0.123	0.0939
100 µM, coculture fibroblast: Hs27A	0.621	0.389	0.327	0.293	0.258	0.248	0.21	0.195	0.152
100 µM, coculture fibroblast: Hs343T	0.507	0.311	0.296	0.279	0.239	0.197	0.163	0.139	0.107
100 µM, coculture fibroblast: WS1	0.492	0.314	0.379	0.267	0.231	0.201	0.17	0.154	0.124
